Patent US8093393B2, “Cationic ceramides, and analogs thereof, and their use for preventing or treating cancer” (MUSC Foundation for Research Development, priority 2004, dated 2012)
Some of these results come from one statement about several compounds together. At least one structure is not confirmed: it was looked up by name or label, or the drawing left a doubt.

Tested on: UM-SCC-22A cells
Assay: MTT cell survival assay and isobologram studies
Assay type: cell-based, human
Details: 96 hr, DMEM, read-out: IC50, cell growth

Structure (SMILES) | IC50 [µM]
CCCCCCCCCCCCC/C=C/[C@H](O)[C@H](CO)NC(=O)CCCCC [L-thereo (L-th)-C6-ceramide, reference compound] | > 1.3
CCCCCCCCCCCCC/C=C/[C@@H](O)[C@H](CO)NC(=O)CCCCC [C6-Cer, D-erythro-C6-ceramide, reference compound] | > 1.3
